# Reference: PubChem BioAssay AID504764 (Drosophila RNAi Screening Center, 2011)
# Purpose: 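Knock-downs that raise or lower a Notch target reporter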 (primary screen)
# Cell system: Drosophila Kc167 cells
# Knock-down reagent: long dsRNA against Drosophila genes
# Duration: about 5 days (4 days dsRNA, then 24 h after transfection)
# Challenge: transfection of constitutively active membrane-tethered Notch lacking the extracellular domain, read 24 h later
# Measurement: 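Light from a Notch-responsive E(spl)m3 luciferase reporter under active Notch, with control-promoter and no-Notch reporter wells to normalise; raw counts from paired wells a and b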
# Reading the numbers: induced reporter light, run 1, well a and induced reporter light, run 1, well b: higher = more light from the Notch target reporter with active Notch; control promoter light, run 1, well a and control promoter light, run 1, well b: higher = more light from the viral control promoter (cell number, transfection, viability); uninduced reporter light, run 1, well a: higher = more light from the Notch target reporter without active Notch
# Hit rule: 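Hit if the duplicate-averaged log2 ratio of induced to control-promoter light gives a plate-wise z beyond ±2, or induced to uninduced beyond ±1.8; weak-control or discordant-duplicate wells dropped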
# Meaning of the calls: active = modifier hit (raised or lowered Notch signal); inactive = not a hit
# The screen tested about 22,000 reagents; this is a random part of those that have a named target and a result. In the full data, 403 (1.9%) were called active. 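Unnormalised raw counts per well; ratio z-scores behind the hit calls and whether each hit raises or lowers signal are not deposited.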 A plus sign joins genes that one reagent is predicted to hit. No sequences are given here. The record does not give: the amount of reagent.
target,dsRNA,"induced reporter light, run 1, well a","induced reporter light, run 1, well b","control promoter light, run 1, well a","control promoter light, run 1, well b","uninduced reporter light, run 1, well a",call
Mvl,DRSC16752,1.62e5,1.48e5,1.94e5,2.23e5,14940,inactive
Fmo-2,DRSC04983,1.60e5,1.54e5,1.56e5,1.97e5,13165,inactive
janB,DRSC16973,1.13e5,94635,1.30e5,1.46e5,9235,inactive
CG5412,DRSC15796,69900,57115,48635,50855,4855,active
CG31275,DRSC16919,2.79e5,2.90e5,2.01e5,2.31e5,18355,active
EbpII,DRSC04637,2.19e5,1.74e5,1.61e5,1.76e5,15825,inactive
EbpII,DRSC22484,,,,,,inactive
Zip48C,DRSC06314,1.59e5,1.08e5,1.09e5,1.29e5,10405,inactive
CG31955,DRSC00285,1.77e5,1.75e5,2.05e5,1.99e5,10635,inactive
T3dh + pgc,DRSC04659,1.69e5,1.65e5,1.11e5,1.40e5,12320,inactive
Ilp5,DRSC08998,1.97e5,1.58e5,1.99e5,1.95e5,11865,inactive

Reagents listed so far marked active, once more:
target,dsRNA,"induced reporter light, run 1, well a","induced reporter light, run 1, well b","control promoter light, run 1, well a","control promoter light, run 1, well b","uninduced reporter light, run 1, well a",call
CG5412,DRSC15796,69900,57115,48635,50855,4855,active
CG31275,DRSC16919,2.79e5,2.90e5,2.01e5,2.31e5,18355,active

Next results:
target,dsRNA,"induced reporter light, run 1, well a","induced reporter light, run 1, well b","control promoter light, run 1, well a","control promoter light, run 1, well b","uninduced reporter light, run 1, well a",call
CG4575 (retired record),DRSC18372,1.20e5,1.18e5,2.14e5,2.22e5,8620,inactive
Mob4,DRSC04993,1.07e5,1.12e5,99155,1.00e5,7955,inactive
CG44251,DRSC06856,86825,88285,1.12e5,95200,8700,inactive
Syx13,DRSC09836,1.21e5,1.12e5,94145,90470,7260,active
dsf,DRSC03524,1.21e5,1.18e5,36955,35550,8610,inactive
CG3198,DRSC18292,1.39e5,1.49e5,2.01e5,2.26e5,11070,inactive
pdm3,DRSC06076,2.31e5,2.29e5,2.73e5,2.85e5,19410,inactive
pdm3,DRSC06490,1.77e5,1.39e5,2.20e5,2.12e5,16990,inactive
pdm3,DRSC22326,,,,,,inactive
lola,DRSC05220,1.95e5,1.72e5,1.65e5,1.63e5,18790,inactive
lola,DRSC05221,2.18e5,2.31e5,2.73e5,3.17e5,20625,inactive
lola,DRSC05222,2.56e5,2.57e5,3.77e5,3.97e5,21155,inactive
lola,DRSC05223,97680,83745,77830,84750,15545,inactive
lola,DRSC05224,2.69e5,3.30e5,4.03e5,3.19e5,18865,inactive
lola,DRSC06738,1.18e5,1.26e5,89485,86375,14145,inactive
lola,DRSC06739,65245,83285,74085,76610,11105,inactive
lola,DRSC06740,96390,91345,66400,66500,8200,inactive
lola,DRSC06741,2.44e5,2.18e5,2.49e5,2.64e5,19688,inactive
lola,DRSC06742,11740,10885,13130,12310,3580,inactive
lola,DRSC07646,1.80e5,1.64e5,1.54e5,1.52e5,12570,inactive
lola,DRSC07647,1.12e5,88720,1.12e5,90875,9650,inactive
CG4666,DRSC18379,1.28e5,1.40e5,2.26e5,2.82e5,9700,inactive
CG12942,DRSC06253,1.75e5,1.53e5,1.67e5,1.63e5,15250,inactive
